Assay results published in publication PMC12176286.
These are yes or no findings as the source states them, for the method shown. In cells and extracts the contact can be indirect. A yes stands for co-enrichment or nearness to the bait. Other partners may have been found. Sequences can lack the tags named with a protein.

Protein sequences, listed by entry. Tags and fused reporters are not part of them. Residues count along the entry.
UniProt P54756, residues 25-1037: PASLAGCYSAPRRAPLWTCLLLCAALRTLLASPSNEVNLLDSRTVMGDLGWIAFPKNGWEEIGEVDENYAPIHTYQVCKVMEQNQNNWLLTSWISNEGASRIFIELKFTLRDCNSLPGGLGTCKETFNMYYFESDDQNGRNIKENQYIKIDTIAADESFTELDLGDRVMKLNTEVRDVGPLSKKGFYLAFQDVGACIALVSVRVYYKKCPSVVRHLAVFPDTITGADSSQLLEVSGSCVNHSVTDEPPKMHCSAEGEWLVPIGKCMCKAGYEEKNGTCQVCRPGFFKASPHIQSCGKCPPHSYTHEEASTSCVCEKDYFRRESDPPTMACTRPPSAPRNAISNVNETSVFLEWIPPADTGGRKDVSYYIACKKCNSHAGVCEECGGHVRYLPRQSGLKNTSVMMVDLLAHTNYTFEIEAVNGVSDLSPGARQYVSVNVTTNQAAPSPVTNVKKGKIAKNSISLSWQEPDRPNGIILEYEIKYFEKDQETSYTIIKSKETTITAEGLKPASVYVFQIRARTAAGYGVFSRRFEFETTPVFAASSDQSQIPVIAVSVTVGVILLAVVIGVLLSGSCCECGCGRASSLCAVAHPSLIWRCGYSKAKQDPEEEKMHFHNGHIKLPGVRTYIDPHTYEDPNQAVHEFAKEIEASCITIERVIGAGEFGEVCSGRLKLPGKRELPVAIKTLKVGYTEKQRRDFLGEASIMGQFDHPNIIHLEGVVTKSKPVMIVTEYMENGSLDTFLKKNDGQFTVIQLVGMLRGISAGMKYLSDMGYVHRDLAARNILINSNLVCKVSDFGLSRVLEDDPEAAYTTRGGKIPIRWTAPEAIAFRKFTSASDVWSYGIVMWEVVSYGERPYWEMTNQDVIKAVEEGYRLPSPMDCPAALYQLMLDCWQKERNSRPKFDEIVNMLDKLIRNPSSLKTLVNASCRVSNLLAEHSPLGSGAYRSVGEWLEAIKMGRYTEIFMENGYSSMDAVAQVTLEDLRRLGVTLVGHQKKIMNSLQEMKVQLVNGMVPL

Target: T1, Rho GTPase-activating protein TAGAP (UniProt Q8N103)
T1 sequence: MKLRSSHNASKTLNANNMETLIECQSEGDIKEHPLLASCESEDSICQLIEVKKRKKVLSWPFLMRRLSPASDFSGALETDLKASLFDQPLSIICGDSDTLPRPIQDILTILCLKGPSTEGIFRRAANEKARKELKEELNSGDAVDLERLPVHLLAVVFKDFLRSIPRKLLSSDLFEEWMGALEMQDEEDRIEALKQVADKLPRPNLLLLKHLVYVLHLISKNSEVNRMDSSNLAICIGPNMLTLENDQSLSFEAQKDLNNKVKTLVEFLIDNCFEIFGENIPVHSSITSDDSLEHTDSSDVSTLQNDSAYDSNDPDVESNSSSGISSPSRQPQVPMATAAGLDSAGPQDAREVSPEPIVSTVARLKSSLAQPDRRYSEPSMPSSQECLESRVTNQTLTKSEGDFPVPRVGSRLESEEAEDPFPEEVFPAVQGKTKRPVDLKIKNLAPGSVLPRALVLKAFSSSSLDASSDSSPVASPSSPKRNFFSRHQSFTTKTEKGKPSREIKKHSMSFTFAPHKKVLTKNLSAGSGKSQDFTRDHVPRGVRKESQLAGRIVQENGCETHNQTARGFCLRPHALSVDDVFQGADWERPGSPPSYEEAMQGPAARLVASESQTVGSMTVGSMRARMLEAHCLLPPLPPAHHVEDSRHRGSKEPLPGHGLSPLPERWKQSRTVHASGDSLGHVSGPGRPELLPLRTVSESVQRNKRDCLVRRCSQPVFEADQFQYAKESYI
Assay: affinity purification with mass spectrometry; immunoprecipitation and mass spectrometry; no further details told

binding: binds
Substance: EPHA5 (found with TAGAP by immunoprecipitation and mass spectrometry) (from UniProt P54756 25-1037) (receptor)
